Measurements from PubChem BioAssay AID2685 (National Center for Advancing Translational Sciences (NCATS), 2010).
Some of the results follow. The main result of the screen is listed elsewhere. These columns were measured beside it and carry no call. Most of these compounds were active or inconclusive in the main read-out, so they are no random draw. Words in brackets tell the shape of the fitted curve; partial curves, single points and poor fits give uncertain potencies.

Experiment: qHTS Assay for Lipid Storage Modulators in Drosophila S3 Cells;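 for cell number change: cells counted by Cell Tracker Red CMTPX staining in the red channel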
Details: BODIPY lipid droplet fluorescence, 18-24 h; for cell number change: measured here: cell count max response, cells fed with added oleic acid
How it was run: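 Drosophila S3 cells loaded with oleic acid (400 uM, as added) and compounds at several concentrations; lipid droplets imaged by 488-nm laser-scanning cytometry, 500–530 nm intensity and object ratio to cell channel. Percent activity normalized to 20 uM Triacsin C.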

[1] = measured here: cell number channel AC50, cells fed with added oleic acid
[2] = measured here: lipid fluorescence (Fed channel) AC50, cells fed with added oleic acid

| Structure (SMILES) | cell number change [%] | AC50 [1] | AC50 [2] |
| --- | --- | --- | --- |
| COc1ccc(C)c2sc(N(CCN(C)C)C(=O)/C=C/c3cccs3)nc12 | -11.5 | 3.26 µM [rising, single point] |  |
| CCOc1cnn(Cc2ccccc2)c(=O)c1SCc1ccccc1 | 75.7 | 29.1 µM [rising, single point] | 23.1 µM [rising, single point] |
| COc1ccc(N(C(=O)c2ccc(S(=O)(=O)N3CCOCC3)cc2)C2C=CS(=O)(=O)C2)cc1 (stereo not drawn) | 1.78 |  | 1.03 µM [falling, full curve, poor fit] |
| OCCC1CN(Cc2cccn2-c2ncccn2)CCN1Cc1ccccc1 (stereo not drawn) | -7.33 |  |  |
| COc1ccccc1C(=O)Nc1ccccc1C(=O)N1CCCC1 | 37.8 | 3.66 µM [rising, single point] | 6.51 µM [falling, single point] |
| O=C1c2ccccc2C(=O)N1CCCP(=O)(O)CCc1ccccc1 | -6.15 |  | 0.366 µM [falling, partial curve] |
| COc1cccc(OCc2nnc3n2N=C(c2ccccc2)C(CC(=O)O)S3)c1 (stereo not drawn) | 25 |  | 6.51 µM [falling, single point] |
| O=C1NC(=O)C(=O)N1 | -23.7 | 0.13 µM [falling, full curve, poor fit] | 0.13 µM [falling, full curve, poor fit] |
| CCn1c(SCc2ccc(OC)c(F)c2)nc2ccccc2c1=O | -19 |  |  |
| CC(=O)N1[C@H](C)C=C[C@]1(Cc1ccccc1)C(=O)NCc1cc(F)cc(C(F)(F)F)c1 | 12.3 | 0.326 µM [rising, partial curve, poor fit] |  |
| NC(=O)c1cc(Cl)ccc1OCC(=O)N1CCCc2ccccc21 | 8.56 |  | 0.116 µM [rising, full curve, poor fit] |
| N#Cc1ccc(COC(=O)CC(NC(N)=O)c2ccc(Cl)cc2)cc1 (stereo not drawn) | 12.8 | 3.66 µM [rising, single point] |  |
| c1coc(CNc2c3c(nc4ncnn24)CCC3)c1 | 6.14 | 6.51 µM [rising, single point] |  |
| Cc1cc(C)n(C(=O)CN2C(=O)c3ccccc3C2=O)n1 |  | 0.259 µM [rising, partial curve] | 0.517 µM [rising, partial curve] |
| COc1cccc(-c2cc(C(=O)Nc3ccccc3SC)no2)c1 | 17.5 |  |  |
| COc1ccc(Nc2nc(N)c([N+](=O)[O-])c(NC3CCCCC3)n2)cc1 | -47.8 | 29.1 µM [falling, single point] | 32.6 µM [falling, single point] |

For reference, part of the list above:

| Structure (SMILES) | cell number change [%] | AC50 [1] | AC50 [2] |
| --- | --- | --- | --- |
| CC(=O)N1[C@H](C)C=C[C@]1(Cc1ccccc1)C(=O)NCc1cc(F)cc(C(F)(F)F)c1 | 12.3 | 0.326 µM [rising, partial curve, poor fit] |  |
| NC(=O)c1cc(Cl)ccc1OCC(=O)N1CCCc2ccccc21 | 8.56 |  | 0.116 µM [rising, full curve, poor fit] |
